Results as given in the supplement of paper PMC12823440, “Inhibitors supercharge kinase turnover through native proteolytic circuits” (Nature, 2025).
Some of the results follow. The calls rarely recur for the same compound in another form.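 Kinases were expressed as nanoluciferase fusions in K562 cells and luminescence was read every 4 h between 2 and 18 h as percent of control, DMSO set to 100% and a positive control to 0%. A time point counts as decreased when the signal drops significantly (2 sigma). The hit call is the authors' own, does not follow from the count of time points alone, and its rule is not shown.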

Protein sequences, listed by entry. Tags and fused reporters are not part of them. Lines headed by an entry give the natural chain unless they say otherwise; changes in a name come on top.
UniProt P21860, whole entry: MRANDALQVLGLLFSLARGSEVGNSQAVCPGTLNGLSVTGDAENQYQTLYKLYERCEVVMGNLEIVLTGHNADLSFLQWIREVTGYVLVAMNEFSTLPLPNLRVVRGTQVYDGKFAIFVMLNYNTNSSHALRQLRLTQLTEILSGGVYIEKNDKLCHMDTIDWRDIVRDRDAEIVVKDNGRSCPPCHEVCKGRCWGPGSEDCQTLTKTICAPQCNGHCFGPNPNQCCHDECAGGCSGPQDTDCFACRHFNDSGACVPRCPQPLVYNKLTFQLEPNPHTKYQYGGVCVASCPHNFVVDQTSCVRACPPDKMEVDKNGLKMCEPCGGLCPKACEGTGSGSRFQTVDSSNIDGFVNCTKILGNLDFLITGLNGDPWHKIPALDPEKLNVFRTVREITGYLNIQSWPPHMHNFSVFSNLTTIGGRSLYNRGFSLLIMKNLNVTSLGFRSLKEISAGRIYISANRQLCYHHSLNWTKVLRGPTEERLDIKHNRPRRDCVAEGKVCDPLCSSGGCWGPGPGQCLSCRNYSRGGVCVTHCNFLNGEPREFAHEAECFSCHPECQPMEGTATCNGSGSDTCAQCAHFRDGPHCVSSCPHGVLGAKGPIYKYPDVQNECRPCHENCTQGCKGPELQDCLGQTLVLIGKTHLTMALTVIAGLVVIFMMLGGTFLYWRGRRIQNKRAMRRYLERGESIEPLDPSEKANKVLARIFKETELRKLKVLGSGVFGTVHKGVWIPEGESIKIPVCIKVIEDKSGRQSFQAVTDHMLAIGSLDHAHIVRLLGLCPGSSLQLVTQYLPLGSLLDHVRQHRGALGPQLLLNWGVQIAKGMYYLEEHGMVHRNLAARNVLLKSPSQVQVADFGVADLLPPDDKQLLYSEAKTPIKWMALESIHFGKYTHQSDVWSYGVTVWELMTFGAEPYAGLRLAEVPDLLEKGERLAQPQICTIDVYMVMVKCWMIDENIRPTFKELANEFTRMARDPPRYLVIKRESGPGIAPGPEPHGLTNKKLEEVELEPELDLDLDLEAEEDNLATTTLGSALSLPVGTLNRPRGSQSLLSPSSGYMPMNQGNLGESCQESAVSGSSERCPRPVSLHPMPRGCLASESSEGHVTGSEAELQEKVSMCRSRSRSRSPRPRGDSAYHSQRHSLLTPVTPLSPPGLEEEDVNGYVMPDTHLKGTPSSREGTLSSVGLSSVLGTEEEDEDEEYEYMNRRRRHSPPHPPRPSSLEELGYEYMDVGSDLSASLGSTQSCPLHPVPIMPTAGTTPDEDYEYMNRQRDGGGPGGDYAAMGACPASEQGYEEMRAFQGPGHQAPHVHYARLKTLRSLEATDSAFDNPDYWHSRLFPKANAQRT
UniProt O75460: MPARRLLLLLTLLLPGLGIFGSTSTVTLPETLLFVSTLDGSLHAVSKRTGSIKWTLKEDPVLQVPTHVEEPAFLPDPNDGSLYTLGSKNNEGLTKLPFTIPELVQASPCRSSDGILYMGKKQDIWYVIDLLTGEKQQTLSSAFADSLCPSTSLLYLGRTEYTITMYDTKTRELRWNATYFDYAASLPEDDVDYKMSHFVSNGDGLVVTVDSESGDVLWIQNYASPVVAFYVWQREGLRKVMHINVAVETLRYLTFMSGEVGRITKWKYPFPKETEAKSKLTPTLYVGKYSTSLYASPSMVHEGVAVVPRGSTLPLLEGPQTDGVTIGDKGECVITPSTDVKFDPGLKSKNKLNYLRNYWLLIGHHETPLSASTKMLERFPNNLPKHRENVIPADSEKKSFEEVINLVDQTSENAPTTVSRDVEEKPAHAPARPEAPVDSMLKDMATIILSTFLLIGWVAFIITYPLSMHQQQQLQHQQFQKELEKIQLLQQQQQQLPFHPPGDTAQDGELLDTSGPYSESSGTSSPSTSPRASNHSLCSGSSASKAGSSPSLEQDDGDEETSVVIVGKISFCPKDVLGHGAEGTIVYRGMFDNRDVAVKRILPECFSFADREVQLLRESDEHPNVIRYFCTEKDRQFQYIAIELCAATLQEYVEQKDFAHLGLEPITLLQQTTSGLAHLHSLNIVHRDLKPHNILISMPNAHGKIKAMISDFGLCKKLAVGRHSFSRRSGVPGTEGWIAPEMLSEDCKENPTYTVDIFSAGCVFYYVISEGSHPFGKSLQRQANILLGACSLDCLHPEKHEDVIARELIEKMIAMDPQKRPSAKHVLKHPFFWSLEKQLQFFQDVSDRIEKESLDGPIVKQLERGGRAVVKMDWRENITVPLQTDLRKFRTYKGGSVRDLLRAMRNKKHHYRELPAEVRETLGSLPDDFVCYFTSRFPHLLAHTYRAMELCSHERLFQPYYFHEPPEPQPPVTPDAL
UniProt P11362, whole entry, looked up: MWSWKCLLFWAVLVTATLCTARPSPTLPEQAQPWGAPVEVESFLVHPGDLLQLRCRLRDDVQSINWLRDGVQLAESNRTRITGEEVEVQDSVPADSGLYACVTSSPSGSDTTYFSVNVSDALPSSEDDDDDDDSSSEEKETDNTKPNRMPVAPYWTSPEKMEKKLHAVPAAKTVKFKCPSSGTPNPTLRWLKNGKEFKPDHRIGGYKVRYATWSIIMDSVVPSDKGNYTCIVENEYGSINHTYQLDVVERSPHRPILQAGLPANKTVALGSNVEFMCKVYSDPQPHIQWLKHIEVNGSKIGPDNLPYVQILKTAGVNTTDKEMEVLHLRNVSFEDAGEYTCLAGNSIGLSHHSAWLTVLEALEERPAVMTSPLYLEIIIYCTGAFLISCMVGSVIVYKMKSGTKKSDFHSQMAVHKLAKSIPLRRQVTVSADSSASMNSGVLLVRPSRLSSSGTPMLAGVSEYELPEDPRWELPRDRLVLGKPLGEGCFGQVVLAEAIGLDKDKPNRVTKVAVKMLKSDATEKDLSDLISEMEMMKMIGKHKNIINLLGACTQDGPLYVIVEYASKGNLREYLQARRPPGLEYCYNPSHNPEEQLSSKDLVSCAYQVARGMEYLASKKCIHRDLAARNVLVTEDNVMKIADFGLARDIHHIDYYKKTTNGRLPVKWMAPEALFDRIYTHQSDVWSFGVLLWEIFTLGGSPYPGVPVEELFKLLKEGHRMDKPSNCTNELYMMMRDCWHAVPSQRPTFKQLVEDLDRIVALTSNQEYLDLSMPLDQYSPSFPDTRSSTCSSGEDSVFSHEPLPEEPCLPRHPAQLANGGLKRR
UniProt P21802, whole entry, looked up: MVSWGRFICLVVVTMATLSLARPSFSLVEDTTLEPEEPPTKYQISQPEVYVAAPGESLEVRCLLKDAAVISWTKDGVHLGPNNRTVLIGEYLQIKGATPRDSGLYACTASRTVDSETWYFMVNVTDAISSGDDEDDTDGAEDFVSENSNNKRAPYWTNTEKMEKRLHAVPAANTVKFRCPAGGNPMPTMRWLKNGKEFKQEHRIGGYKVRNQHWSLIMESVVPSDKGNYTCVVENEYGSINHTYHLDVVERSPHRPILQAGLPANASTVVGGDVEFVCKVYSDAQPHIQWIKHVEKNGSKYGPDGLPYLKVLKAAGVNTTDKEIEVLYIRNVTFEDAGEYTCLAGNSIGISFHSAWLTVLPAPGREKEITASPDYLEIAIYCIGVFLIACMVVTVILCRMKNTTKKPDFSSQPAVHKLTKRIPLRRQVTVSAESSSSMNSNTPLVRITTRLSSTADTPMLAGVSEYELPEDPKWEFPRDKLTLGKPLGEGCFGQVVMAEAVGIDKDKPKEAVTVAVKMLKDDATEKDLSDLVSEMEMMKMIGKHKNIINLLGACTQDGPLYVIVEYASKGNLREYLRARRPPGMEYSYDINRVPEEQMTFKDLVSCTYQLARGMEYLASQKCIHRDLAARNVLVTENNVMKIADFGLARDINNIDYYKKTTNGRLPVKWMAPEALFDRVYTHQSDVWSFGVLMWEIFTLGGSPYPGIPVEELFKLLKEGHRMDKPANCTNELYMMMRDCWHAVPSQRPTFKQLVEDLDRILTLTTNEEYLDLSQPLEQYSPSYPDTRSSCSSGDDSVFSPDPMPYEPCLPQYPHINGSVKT
UniProt P14616: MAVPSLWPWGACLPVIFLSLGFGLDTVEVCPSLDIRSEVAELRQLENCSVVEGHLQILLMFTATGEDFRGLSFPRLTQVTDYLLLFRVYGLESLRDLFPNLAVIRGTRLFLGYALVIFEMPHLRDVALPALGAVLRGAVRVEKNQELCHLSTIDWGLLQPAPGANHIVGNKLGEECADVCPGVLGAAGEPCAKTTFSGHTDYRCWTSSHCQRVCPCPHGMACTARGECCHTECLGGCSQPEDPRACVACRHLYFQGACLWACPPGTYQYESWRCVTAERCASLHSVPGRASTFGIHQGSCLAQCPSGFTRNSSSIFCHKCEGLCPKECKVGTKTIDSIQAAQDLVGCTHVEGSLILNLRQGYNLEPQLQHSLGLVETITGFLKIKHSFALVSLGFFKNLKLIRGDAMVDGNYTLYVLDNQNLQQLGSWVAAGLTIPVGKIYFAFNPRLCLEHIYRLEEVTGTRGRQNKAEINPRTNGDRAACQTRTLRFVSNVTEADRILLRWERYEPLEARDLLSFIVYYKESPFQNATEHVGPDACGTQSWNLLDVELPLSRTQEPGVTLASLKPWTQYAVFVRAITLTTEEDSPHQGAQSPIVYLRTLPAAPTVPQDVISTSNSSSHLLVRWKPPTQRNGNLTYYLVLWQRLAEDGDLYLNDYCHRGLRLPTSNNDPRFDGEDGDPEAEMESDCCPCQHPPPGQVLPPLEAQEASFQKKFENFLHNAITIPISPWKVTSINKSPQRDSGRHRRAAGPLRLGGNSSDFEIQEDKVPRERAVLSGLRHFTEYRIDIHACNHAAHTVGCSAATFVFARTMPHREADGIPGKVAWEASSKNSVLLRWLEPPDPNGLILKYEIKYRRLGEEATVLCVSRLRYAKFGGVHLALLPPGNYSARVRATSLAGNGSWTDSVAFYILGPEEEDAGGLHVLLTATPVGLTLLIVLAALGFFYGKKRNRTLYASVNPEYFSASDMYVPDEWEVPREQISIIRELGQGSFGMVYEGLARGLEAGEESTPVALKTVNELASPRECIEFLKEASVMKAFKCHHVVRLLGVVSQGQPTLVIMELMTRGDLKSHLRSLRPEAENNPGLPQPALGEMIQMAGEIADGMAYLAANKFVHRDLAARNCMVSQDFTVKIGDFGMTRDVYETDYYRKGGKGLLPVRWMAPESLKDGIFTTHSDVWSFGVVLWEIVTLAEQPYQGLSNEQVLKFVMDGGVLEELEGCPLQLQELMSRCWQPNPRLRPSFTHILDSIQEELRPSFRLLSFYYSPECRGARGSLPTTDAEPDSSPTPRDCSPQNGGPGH
UniProt Q9Y616: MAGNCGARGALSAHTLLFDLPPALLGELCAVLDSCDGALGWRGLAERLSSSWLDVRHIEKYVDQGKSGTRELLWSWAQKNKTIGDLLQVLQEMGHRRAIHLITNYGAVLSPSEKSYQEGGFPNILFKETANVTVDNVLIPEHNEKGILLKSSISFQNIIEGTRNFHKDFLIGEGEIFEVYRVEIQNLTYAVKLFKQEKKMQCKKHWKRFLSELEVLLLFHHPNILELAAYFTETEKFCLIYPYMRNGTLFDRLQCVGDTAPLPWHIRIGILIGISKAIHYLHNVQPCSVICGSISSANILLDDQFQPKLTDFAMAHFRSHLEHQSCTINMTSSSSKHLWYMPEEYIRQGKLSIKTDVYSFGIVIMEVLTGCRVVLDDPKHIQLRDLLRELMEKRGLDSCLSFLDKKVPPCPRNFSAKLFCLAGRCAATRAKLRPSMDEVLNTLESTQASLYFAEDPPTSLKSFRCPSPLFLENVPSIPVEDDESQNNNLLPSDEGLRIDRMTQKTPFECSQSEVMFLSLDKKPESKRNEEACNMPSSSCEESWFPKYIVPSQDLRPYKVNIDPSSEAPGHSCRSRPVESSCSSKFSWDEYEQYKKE
UniProt P06239: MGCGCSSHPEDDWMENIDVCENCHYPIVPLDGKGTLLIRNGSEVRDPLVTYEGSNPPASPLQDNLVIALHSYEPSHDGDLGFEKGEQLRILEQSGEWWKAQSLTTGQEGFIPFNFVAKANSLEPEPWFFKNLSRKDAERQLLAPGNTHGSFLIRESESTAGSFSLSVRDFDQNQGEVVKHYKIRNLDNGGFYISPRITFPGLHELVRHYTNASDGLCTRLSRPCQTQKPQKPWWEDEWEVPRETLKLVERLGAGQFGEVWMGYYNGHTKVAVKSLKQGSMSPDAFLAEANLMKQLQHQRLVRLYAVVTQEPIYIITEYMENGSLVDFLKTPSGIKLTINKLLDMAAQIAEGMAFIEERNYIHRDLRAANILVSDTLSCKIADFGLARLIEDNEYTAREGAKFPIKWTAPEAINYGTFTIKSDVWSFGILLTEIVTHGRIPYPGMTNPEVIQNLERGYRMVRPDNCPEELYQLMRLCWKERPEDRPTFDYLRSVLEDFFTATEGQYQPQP

Experiments:
Assay in all cases: number of time points (of 5) at which kinase-Nluc abundance scored as decreased, DMSO-normalised (count); higher = more persistent destabilization
Conditions in all cases: K562; 2-18 h
EGFR_L861Q = EGFR_L861Q (UniProt P00533)
EGFR_T790M = EGFR_T790M (UniProt P00533)
EPHA2 = EPHA2 (UniProt P29317)
ERBB3 = ERBB3 (UniProt P21860)
[1] = biological target: ERBB4_R711C (clone: ERBB4_mut) (UniProt Q15303)
ERN1 = ERN1 (UniProt O75460)
FGFR1 = FGFR1 (UniProt P11362)
FGFR2 = FGFR2 (UniProt P21802)
FGFR3 = FGFR3 (UniProt P22607)
FGR = FGR (UniProt P09769)
FLT3 = FLT3 (UniProt P36888)
FYN = FYN (UniProt P06241)
GSK3A = GSK3A (UniProt P49840)
HER2 = HER2 (UniProt P04626)
INSRR = INSRR (UniProt P14616)
IRAK3 = IRAK3 (UniProt Q9Y616)
JAK1 = JAK1 (UniProt P23458)
LCK = LCK (UniProt P06239)
LIMK1 = LIMK1 (UniProt P53667)
LIMK2 = LIMK2 (UniProt P53671)

Measured: number of time points

COc1cc2c(cc1Nc1ncc(C(N)=O)c(Nc3c(F)cccc3C(F)(F)F)n1)CN(C)CC2 (2.5 µM)
0: all assays above

Cc1cc(C(=O)Nc2nc3cccc(Cl)c3n2[C@@H]2CCCCN(C(=O)/C=C/CN(C)C)C2)ccn1 [Nazartinib] (10 µM)
1: HER2
0: all other assays above

COc1ccc2c3n(c(=NC(=O)c4cccnc4)nc2c1OC)CCN3 (2 µM)
0: all assays above

NC[C@@](O)(c1ccc(Cl)cc1)c1ccc(-c2cn[nH]c2)cc1 (10 µM)
0: all assays above

N#Cc1cnc2c(Cl)cc(NCc3cn(CCN4CCCCCC4)nn3)cc2c1Nc1ccc(F)c(Cl)c1 [Cot inhibitor-1] (10 µM)
1: EGFR_L861Q
4: LIMK2
0: all other assays above

Cn1c(CNc2cccc(C(=O)NCc3ccccc3C(F)(F)F)c2)nnc1-c1ccncc1 (10 µM)
0: all assays above

COc1cc(-c2oc3cc(O)cc(O)c3c(=O)c2O)ccc1O [Isorhamnetin] (10 µM)
0: all assays above

Looked up by structure from the list above, two records:
NC[C@@](O)(c1ccc(Cl)cc1)c1ccc(-c2cn[nH]c2)cc1 (10 µM)
0: all assays above

COc1cc2c(cc1Nc1ncc(C(N)=O)c(Nc3c(F)cccc3C(F)(F)F)n1)CN(C)CC2 (2.5 µM)
0: all assays above

(list continues)

COc1cc2cc(Oc3ccc4ccc(=O)oc4c3)c(=O)oc2cc1O [Daphnoretin] (10 µM)
0: all assays above

CC1CN(CC2CCN(Cc3ccccc3)CC2)C(=O)N(c2cccc(C(=N)N)c2)C1 (stereo not given) (10 µM)
0: all assays above

Brc1ccc(CSc2nc3ccccc3o2)cc1 [BMP signaling agonist sb4] (10 µM)
0: all assays above

CCN(CC)CCCC(C)Nc1nc(C)cc(Nc2ccc3nc(C)cc(N)c3c2)n1 (stereo not given) (10 µM)
0: all assays above
